Experimental data from the supplement of paper PMC10849652.
Some of the results follow.

Amino acid sequences for entries named in this document (tags omitted). A change or cut given only in a name is not applied to a line headed by its entry.
UniProt O60869: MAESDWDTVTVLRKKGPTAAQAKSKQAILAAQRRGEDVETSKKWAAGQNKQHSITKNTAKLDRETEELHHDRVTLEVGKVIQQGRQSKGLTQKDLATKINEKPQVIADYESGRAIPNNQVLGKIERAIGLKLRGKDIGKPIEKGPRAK
UniProt O00559: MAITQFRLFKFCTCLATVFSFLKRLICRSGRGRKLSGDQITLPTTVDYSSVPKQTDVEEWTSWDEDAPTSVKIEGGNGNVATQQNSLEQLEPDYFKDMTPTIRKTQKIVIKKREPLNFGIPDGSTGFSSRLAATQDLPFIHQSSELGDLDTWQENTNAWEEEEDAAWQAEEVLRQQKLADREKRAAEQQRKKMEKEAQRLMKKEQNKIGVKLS
UniProt Q9BU89: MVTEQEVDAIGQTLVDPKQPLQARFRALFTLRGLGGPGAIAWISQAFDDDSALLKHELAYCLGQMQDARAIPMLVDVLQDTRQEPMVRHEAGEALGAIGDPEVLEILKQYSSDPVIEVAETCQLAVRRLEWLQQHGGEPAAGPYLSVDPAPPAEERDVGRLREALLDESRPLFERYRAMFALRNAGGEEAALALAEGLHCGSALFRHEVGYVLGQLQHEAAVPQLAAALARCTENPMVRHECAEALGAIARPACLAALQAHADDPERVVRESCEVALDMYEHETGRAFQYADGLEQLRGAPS
UniProt O95147: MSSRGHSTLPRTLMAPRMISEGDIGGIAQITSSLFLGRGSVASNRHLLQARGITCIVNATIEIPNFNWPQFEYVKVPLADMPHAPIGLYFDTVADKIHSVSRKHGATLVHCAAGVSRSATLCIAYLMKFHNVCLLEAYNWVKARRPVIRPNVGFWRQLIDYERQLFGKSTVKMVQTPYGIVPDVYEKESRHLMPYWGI
UniProt Q5F1R6: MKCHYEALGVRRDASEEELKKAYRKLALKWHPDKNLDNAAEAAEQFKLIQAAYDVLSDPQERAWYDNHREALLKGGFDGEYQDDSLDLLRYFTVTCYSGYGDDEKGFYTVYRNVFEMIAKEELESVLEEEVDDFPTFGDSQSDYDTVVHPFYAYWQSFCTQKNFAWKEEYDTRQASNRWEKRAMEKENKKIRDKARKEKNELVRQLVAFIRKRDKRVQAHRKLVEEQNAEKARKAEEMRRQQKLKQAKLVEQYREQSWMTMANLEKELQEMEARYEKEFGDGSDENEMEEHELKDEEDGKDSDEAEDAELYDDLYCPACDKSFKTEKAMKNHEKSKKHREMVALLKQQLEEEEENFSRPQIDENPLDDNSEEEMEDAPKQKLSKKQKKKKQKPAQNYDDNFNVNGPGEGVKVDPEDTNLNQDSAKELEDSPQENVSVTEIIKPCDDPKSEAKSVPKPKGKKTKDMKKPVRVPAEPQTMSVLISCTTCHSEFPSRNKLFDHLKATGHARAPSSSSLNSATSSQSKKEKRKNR
UniProt Q92785, whole entry, looked up: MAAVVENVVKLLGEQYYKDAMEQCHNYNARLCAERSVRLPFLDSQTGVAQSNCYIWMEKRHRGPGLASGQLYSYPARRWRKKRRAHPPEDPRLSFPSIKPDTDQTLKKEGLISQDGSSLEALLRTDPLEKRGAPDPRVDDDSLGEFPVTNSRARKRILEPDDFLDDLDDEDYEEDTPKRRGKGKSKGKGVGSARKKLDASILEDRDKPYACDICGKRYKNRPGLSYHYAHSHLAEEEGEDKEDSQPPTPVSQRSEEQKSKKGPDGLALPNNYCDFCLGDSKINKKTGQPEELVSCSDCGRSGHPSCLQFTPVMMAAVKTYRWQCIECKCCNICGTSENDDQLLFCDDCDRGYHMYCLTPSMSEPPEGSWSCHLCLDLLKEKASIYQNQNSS
UniProt Q92611: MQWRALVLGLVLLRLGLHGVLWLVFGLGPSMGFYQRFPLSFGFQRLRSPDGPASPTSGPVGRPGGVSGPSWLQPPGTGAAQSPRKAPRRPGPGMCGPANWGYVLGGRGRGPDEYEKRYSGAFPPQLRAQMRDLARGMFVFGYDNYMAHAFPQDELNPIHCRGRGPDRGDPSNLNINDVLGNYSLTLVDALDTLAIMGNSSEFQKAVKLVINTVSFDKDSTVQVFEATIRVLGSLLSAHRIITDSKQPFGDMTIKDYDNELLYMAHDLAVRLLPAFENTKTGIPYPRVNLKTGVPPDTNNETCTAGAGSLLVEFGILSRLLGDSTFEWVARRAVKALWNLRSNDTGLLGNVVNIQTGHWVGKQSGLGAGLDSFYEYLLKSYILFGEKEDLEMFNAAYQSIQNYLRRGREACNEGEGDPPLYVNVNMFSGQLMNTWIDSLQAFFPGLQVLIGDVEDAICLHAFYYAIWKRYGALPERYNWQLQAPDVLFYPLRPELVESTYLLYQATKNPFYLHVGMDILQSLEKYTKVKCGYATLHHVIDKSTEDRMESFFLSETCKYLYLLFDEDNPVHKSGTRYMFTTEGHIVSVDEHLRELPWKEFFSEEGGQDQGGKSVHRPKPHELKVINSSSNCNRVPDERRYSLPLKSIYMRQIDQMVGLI
UniProt Q6P3W2: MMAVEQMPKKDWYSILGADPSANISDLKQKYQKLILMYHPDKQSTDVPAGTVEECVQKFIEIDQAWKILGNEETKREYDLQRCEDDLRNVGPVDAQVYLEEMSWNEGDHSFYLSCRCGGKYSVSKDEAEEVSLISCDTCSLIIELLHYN
UniProt Q99543: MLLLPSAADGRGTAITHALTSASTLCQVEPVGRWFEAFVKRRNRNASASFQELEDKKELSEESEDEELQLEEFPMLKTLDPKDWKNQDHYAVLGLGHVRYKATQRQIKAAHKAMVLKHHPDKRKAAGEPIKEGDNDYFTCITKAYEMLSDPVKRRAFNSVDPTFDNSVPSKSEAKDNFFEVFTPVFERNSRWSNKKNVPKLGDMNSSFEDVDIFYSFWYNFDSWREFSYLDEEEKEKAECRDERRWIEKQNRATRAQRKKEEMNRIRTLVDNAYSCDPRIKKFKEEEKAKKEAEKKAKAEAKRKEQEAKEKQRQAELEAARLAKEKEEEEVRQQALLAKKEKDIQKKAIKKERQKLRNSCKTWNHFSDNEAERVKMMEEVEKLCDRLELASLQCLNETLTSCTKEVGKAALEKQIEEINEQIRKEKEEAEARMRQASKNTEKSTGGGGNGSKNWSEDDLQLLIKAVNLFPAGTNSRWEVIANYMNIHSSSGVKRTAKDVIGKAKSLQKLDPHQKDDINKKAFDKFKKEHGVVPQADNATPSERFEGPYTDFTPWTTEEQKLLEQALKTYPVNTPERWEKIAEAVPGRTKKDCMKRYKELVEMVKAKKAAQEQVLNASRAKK
UniProt O00429, whole entry, looked up: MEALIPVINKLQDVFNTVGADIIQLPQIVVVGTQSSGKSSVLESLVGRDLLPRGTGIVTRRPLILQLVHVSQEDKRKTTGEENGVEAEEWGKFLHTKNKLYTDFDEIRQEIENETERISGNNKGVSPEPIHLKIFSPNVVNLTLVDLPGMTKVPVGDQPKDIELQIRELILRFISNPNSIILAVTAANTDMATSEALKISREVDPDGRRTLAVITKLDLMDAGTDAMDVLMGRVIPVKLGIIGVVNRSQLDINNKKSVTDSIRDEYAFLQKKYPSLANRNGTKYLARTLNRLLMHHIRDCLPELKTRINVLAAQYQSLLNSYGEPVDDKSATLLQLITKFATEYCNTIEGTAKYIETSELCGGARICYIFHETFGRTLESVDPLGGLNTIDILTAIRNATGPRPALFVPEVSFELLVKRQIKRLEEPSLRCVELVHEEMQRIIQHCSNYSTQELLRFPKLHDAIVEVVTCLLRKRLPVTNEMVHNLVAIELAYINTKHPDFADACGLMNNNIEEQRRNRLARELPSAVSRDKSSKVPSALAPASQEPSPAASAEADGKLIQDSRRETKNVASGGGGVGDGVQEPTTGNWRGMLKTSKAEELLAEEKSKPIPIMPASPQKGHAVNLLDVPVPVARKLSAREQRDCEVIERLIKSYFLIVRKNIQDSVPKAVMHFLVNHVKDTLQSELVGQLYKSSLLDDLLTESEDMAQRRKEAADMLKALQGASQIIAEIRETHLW
UniProt Q96KC8: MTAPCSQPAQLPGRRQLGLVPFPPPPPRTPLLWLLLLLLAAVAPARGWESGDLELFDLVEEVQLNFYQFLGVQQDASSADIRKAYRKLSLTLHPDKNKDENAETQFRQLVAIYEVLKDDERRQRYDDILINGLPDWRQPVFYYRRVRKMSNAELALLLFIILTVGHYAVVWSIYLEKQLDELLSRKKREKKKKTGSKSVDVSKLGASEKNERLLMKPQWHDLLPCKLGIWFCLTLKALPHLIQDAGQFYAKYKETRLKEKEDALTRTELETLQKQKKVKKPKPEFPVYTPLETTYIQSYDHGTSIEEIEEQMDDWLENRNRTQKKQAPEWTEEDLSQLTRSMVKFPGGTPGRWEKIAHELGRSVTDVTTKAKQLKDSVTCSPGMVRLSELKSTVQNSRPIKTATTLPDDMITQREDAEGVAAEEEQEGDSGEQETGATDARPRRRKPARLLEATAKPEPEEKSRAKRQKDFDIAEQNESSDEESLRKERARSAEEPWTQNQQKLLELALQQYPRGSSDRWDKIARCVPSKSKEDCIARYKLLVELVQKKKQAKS
UniProt P33316: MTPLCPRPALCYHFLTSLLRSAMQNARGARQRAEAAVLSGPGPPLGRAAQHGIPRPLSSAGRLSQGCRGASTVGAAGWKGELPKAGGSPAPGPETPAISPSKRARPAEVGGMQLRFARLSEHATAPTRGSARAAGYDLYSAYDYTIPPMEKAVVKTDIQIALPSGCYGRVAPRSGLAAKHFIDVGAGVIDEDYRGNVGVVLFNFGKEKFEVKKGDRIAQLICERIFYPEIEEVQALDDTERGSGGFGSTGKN
UniProt Q5VYK3, whole entry, looked up: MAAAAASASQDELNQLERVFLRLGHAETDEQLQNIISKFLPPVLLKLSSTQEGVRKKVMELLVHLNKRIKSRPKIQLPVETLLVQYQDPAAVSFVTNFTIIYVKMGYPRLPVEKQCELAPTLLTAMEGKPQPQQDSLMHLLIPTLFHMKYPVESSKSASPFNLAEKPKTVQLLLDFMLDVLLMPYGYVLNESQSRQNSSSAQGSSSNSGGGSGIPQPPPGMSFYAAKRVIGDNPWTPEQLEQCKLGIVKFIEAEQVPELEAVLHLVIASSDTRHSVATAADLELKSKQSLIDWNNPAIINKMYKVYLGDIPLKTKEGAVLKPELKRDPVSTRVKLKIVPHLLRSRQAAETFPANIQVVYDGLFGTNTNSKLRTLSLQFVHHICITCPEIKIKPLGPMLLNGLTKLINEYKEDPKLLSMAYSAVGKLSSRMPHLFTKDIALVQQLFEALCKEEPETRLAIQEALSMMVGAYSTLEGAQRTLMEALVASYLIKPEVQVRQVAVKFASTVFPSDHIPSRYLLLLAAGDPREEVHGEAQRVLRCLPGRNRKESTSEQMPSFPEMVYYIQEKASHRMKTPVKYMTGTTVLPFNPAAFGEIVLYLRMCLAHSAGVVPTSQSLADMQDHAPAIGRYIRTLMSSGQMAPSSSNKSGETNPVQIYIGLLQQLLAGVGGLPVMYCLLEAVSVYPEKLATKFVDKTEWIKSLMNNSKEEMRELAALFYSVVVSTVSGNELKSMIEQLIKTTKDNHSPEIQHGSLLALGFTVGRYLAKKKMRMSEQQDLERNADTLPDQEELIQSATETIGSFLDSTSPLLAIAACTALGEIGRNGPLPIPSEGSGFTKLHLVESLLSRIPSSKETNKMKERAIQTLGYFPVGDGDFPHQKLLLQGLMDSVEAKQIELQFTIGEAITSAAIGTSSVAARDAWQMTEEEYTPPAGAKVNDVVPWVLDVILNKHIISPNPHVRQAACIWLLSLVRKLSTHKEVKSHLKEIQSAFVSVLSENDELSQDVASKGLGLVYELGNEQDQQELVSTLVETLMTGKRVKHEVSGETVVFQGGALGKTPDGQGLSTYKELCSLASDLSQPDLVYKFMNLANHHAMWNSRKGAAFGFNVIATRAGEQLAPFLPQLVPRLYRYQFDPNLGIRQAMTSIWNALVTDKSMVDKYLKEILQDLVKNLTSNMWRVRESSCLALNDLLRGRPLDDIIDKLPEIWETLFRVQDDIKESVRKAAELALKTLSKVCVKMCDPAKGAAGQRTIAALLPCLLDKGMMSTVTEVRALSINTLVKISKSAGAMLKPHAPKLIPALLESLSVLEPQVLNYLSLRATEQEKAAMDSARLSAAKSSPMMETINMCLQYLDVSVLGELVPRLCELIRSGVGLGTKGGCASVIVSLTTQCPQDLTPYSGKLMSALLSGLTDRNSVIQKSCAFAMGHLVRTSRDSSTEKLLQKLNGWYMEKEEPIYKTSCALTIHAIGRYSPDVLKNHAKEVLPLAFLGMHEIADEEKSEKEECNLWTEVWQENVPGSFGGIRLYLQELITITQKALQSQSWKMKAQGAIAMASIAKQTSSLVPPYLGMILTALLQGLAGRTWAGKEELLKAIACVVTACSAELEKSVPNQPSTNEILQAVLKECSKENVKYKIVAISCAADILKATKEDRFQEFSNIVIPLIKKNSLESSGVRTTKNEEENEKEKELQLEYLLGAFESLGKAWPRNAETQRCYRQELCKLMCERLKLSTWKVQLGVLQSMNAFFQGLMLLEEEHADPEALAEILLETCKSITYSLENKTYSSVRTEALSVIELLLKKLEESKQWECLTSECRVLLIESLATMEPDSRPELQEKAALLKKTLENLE

Tests used:
Assay in all cases: log2 fold change, soluble protein after heating vs DMSO (PISA); higher = thermal stabilisation; K562 cells, 10 uM, 30 min; active = over 0.2 and 3.5 SD of the protein, either way, in both replicates (recomputed)
[1] = compound: C1=CC=C(C=C1)[C@H](COC2=CC3=C(C=C2)NC(=O)N3)NC(=O)C4=CC=CN(C4=O)CC5=CC(=C(C=C5)F)F
How it was run: (§1)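 For each measurement, 10 μM compound was applied for 30 min to K562 cells at 2×10^6 cells/mL. Aliquots were heated for 3 min across 48°C-58°C, pooled, and extracted in PBS with 0.5% NP-40 at 4°C; the supernatant after 21,000xg for 90 min was soluble protein. This was quantified by TMTpro 16plex LC-MS/MS with channel sums equalised, and thermal stability was reported relative to control samples from duplicates, on a log2 fold-change scale.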

[2] = compound: CC1=C(SC2=C1C(=N[C@H](C3=NN=C(N32)C)CC(=O)N)C4=CC=C(C=C4)Cl)C
How it was run: as §1

[3] = compound: CC1=C2C(=CC=C1)N=C(N(C2=O)C3=CC=CC=C3C)CN4C=NC5=C(N=CN=C54)N
How it was run: as §1

[4] = compound: Cc1sc2c(c1C)C(c1ccc(Cl)cc1)=N[C@@H](CC(=O)OC(C)(C)C)c1nnc(C)n1-2
How it was run: as §1

[5] = compound: c1ccc([C@@H]2C[C@H]2NC2CCNCC2)cc1
How it was run: as §1

Measured: log2 fold change

DSTN (UniProt P60981)
inactive: [1] -0.063 | [2] 0.015 | [3] 0.055 | [4] 0.005 | [5] -0.002

DXO (UniProt O77932)
inactive: [1] -0.116 | [2] 0.024 | [3] -0.066 | [4] -0.169 | [5] -0.048

EDF1 (UniProt O60869)
inactive: [1] 0.003 | [2] 0.008 | [3] 0.013 | [4] -0.011 | [5] 0.018

EBAG9 isoform 2 (UniProt O00559)
inactive: [1] 0.075 | [2] 0.077 | [3] 0.058 | [4] -0.058 | [5] 0.06

ECM1 isoform 4 (UniProt Q16610)
inactive: [1] 0.023 | [2] 0.016 | [3] 0.009 | [4] 0.038 | [5] 0.037

DOHH (UniProt Q9BU89)
inactive: [1] 0.218 | [2] 0.072 | [3] -0.062 | [4] 0.031 | [5] -0.088

DUSP14 (UniProt O95147)
inactive: [1] -0.129 | [2] 0.009 | [3] 0.082 | [4] 0.035 | [5] -0.007

DNAJC21 isoform 3 (UniProt Q5F1R6)
inactive: [1] 0.051 | [2] -0.074 | [3] -0.067 | [4] 0.074 | [5] -0.087

E4F1 (UniProt Q66K89)
inactive: [1] 0.11 | [2] 0.331 | [3] -0.217 | [4] 0.17 | [5] 0.072

DSN1 (UniProt Q9H410)
inactive: [1] 0.02 | [2] 0.016 | [3] 0.059 | [4] 0.045 | [5] -0.054

Pulled one by one from the entries so far (2):
DOHH (UniProt Q9BU89)
inactive: [1] 0.218 | [2] 0.072 | [3] -0.062 | [4] 0.031 | [5] -0.088

DSN1 (UniProt Q9H410)
inactive: [1] 0.02 | [2] 0.016 | [3] 0.059 | [4] 0.045 | [5] -0.054

(listing goes on)

DPF2 (UniProt Q92785)
inactive: [1] 0.051 | [2] -0.037 | [3] 0.004 | [4] 0.012 | [5] 0.075

DNPEP (UniProt Q9ULA0)
inactive: [1] 0.035 | [2] 0.022 | [3] 0.015 | [4] -0.03 | [5] 0.029

EDEM1 (UniProt Q92611)
inactive: [1] 0.006 | [2] 0.068 | [3] 0.017 | [4] -0.105 | [5] -0.074

DPP9 isoform 2 (UniProt Q86TI2)
inactive: [1] -0.045 | [2] 0.086 | [3] 0.05 | [4] 0 | [5] -0.065

DNAJC24 (UniProt Q6P3W2)
inactive: [1] 0.05 | [2] 0.072 | [3] 0.025 | [4] -0.002 | [5] 0.054

DNAJC2 (UniProt Q99543)
inactive: [1] -0.093 | [2] 0.006 | [3] 0.017 | [4] 0.106 | [5] -0.086

DNAJC6 isoform 2 (UniProt O75061)
inactive: [1] 0 | [2] 0.038 | [3] 0.062 | [4] -0.016 | [5] 0.034

DNM1L isoform 6 (UniProt O00429)
inactive: [1] -0.03 | [2] 0.038 | [3] 0.072 | [4] -0.011 | [5] -0.034

EBP (UniProt Q15125)
inactive: [1] -0.009 | [2] 0.082 | [3] 0.087 | [4] -0.031 | [5] 0.06

DNLZ (UniProt Q5SXM8)
inactive: [1] 0.053 | [2] 0.05 | [3] -0.014 | [4] 0.004 | [5] 0.023

DNAJC1 (UniProt Q96KC8)
inactive: [1] -0.024 | [2] 0.054 | [3] 0.08 | [4] -0.015 | [5] 0.052

DYNC1I2 isoform 5 (UniProt Q13409)
inactive: [1] 0.019 | [2] 0.021 | [3] -0.006 | [4] -0.033 | [5] -0.019

DUT (UniProt P33316)
inactive: [1] -0.048 | [2] 0.024 | [3] 0.06 | [4] -0.007 | [5] -0.007

ECPAS (UniProt Q5VYK3)
inactive: [1] -0.127 | [2] 0.047 | [3] 0.112 | [4] -0.032 | [5] -0.01
